{"source": "the supplement of paper PMC8728848", "binders": {"B1": {"name": "CcfD (Bacteroides vulgatus), A6KYX8 (protein)", "chain": "MKYKNYFKSIIYLALGAFTLGSCEDFLDRQEDEKLTFDKIWESRNTTQQYWLNAMSFLPNENGSLQGDTEPYLGASDECTIAYDRQYRWINFGTWNPSQVPYYKMDHYYKGIRECNIFLQNVYKCSDPLVTKDQLDEWYWQTRFARAYYYFLMMRDYGPVFLLGDDLLDFTASTEELYRPRNTWDQCVNYVVSEMTQCAESGVVLQQSDLPAAKWGLATVGTCHAVISRLLLYSARPLFNGNKLYSTVKNPDAPDFPELSGVKLFPELDNTKWQKAAEAAKKLIDNPCYELYRAGNDNPYEDYYGVTHETWNKELIWTDRYNGLFSWGVGTVPTGVAGTAYGAVGPTQALVDAYAMNTGWYPITGYEADGTPIVEPLSGYELASELEKSSWIYPSGGWSNKADFEIEAPNMYKDREPRFYVTVFFGGNQWLHGNSATSISFAKGGNGNKSHDYPKSGYLCNRFYDHKLNSSEGQWGNITFPVFRLGEIYLNFIEAVLECKKNGVALDPSYEALAMEKWADLRKRAGLDPITSIYGQVSTEELIQLCRKERQIELAFERHRYFDTRTWMIATQTDNGKMYGMNTSCPLDAGMKGTETPDGFWERTAFETRVFQNKHYLYPFSQRELDRNKLLTQNYGW"}}, "assay_in_all_cases": "glycan array binding signal (z-score within array); higher = stronger binding", "settings_in_all_cases": "glycan notation: IUPAC condensed, linker removed", "key": {"Neu5Ac(a2-8)Neu5Ac": {"biological_target": "Neu5Ac(a2-8)Neu5Ac", "how_it_was_run": "(§1)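 The binding signal is a Z-score computed within each array. Data were drawn from 3228 arrays in the Consortium for Functional Glycomics database, restricted to those with a known protein sequence. Scores were averaged over arrays of the same protein sequence at different concentrations or buffers, and over linkers, and negative values can be taken as non-binding.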"}, "[1]": {"biological_target": "Neu5Ac(a2-8)Neu5Ac(a2-3)Gal(b1-3)GalNAc(b1-4)[Neu5Ac(a2-3)]Gal(b1-4)Glc", "how_it_was_run": "as §1"}, "[2]": {"biological_target": "Neu5Ac(a2-8)Neu5Ac(a2-3)Gal(b1-3)GalNAc(b1-4)[Neu5Ac(a2-8)Neu5Ac(a2-3)]Gal(b1-4)Glc", "how_it_was_run": "as §1"}, "[3]": {"biological_target": "Neu5Ac(a2-8)Neu5Ac(a2-3)Gal(b1-4)Glc", "how_it_was_run": "as §1"}, "[4]": {"biological_target": "Neu5Ac(a2-8)Neu5Ac(a2-3)Gal(b1-4)GlcNAc", "how_it_was_run": "as §1"}, "[5]": {"biological_target": "Neu5Ac(a2-8)Neu5Ac(a2-3)[Gal(b1-3)GalNAc(b1-4)]Gal(b1-4)Glc", "how_it_was_run": "as §1"}, "[6]": {"biological_target": "Neu5Ac(a2-8)Neu5Ac(a2-3)[GalNAc(b1-4)]Gal(b1-4)Glc", "how_it_was_run": "as §1"}, "[7]": {"biological_target": "Neu5Ac(a2-8)Neu5Ac(a2-8)Neu5Ac", "how_it_was_run": "as §1"}, "[8]": {"biological_target": "Neu5Ac(a2-8)Neu5Ac(a2-8)Neu5Ac(a2-3)Gal(b1-4)Glc", "how_it_was_run": "as §1"}, "[9]": {"biological_target": "Neu5Ac(a2-8)Neu5Ac(a2-8)Neu5Ac(a2-3)[Gal(b1-3)GalNAc(b1-4)]Gal(b1-4)Glc", "how_it_was_run": "as §1"}, "[10]": {"biological_target": "Neu5Ac(a2-8)Neu5Ac(a2-8)Neu5Ac(a2-3)[GalNAc(b1-4)]Gal(b1-4)Glc", "how_it_was_run": "as §1"}, "[11]": {"biological_target": "Neu5Ac(a2-8)Neu5Ac(a2-8)Neu5Ac(a2-8)Neu5Ac(a2-3)[GalNAc(b1-4)]Gal(b1-4)Glc", "how_it_was_run": "as §1"}, "[12]": {"biological_target": "Neu5Ac(a2-8)Neu5Gc(a2-3)Gal(b1-4)GlcNAc", "how_it_was_run": "as §1"}, "[13]": {"biological_target": "Neu5Ac(b2-6)Gal(b1-4)GlcNAc", "how_it_was_run": "as §1"}, "Neu5Ac(b2-6)GalNAc": {"biological_target": "Neu5Ac(b2-6)GalNAc", "how_it_was_run": "as §1"}, "[14]": {"biological_target": "Neu5Ac9Ac(a2-3)Gal(b1-3)GlcNAc", "how_it_was_run": "as §1"}, "[15]": {"biological_target": "Neu5Ac9Ac(a2-3)Gal(b1-4)GlcNAc", "how_it_was_run": "as §1"}, "[16]": {"biological_target": "Neu5Ac9Ac(a2-6)Gal(b1-4)GlcNAc", "how_it_was_run": "as §1"}, "[17]": {"biological_target": "Neu5Gc(a2-3)Gal(b1-3)GlcNAc", "how_it_was_run": "as §1"}, "[18]": {"biological_target": "Neu5Gc(a2-3)Gal(b1-3)[Fuc(a1-4)]GlcNAc", "how_it_was_run": "as §1"}, "Neu5Gc(a2-3)Gal(b1-4)Glc": {"biological_target": "Neu5Gc(a2-3)Gal(b1-4)Glc", "how_it_was_run": "as §1"}, "[19]": {"biological_target": "Neu5Gc(a2-3)Gal(b1-4)GlcNAc", "how_it_was_run": "as §1"}, "[20]": {"biological_target": "Neu5Gc(a2-3)Gal(b1-4)GlcNAc(b1-3)Gal(b1-4)GlcNAc(b1-2)Man(a1-3)[Neu5Gc(a2-3)Gal(b1-4)GlcNAc(b1-3)Gal(b1-4)GlcNAc(b1-2)Man(a1-6)]Man(b1-4)GlcNAc(b1-4)GlcNAc", "how_it_was_run": "as §1"}, "[21]": {"biological_target": "Neu5Gc(a2-3)Gal(b1-4)[Fuc(a1-3)]GlcNAc", "how_it_was_run": "as §1"}, "[22]": {"biological_target": "Neu5Gc(a2-6)Gal(b1-4)GlcNAc", "how_it_was_run": "as §1"}, "Neu5Gc(a2-6)GalNAc": {"biological_target": "Neu5Gc(a2-6)GalNAc", "how_it_was_run": "as §1"}, "[23]": {"biological_target": "Neu5Gc(a2-8)Neu5Ac(a2-3)Gal(b1-4)GlcNAc", "how_it_was_run": "as §1"}, "[24]": {"biological_target": "Neu5Gc(a2-8)Neu5Gc(a2-3)Gal(b1-4)GlcNAc", "how_it_was_run": "as §1"}, "[25]": {"biological_target": "Neu5Gc(a2-8)Neu5Gc(a2-3)Gal(b1-4)GlcNAc(b1-3)Gal(b1-4)GlcNAc", "how_it_was_run": "as §1"}, "[26]": {"biological_target": "Neu5Gc(a2-8)Neu5Gc(a2-6)Gal(b1-4)GlcNAc", "how_it_was_run": "as §1"}, "[27]": {"biological_target": "Neu5Gc(b2-6)Gal(b1-4)GlcNAc", "how_it_was_run": "as §1"}}, "note": "The list shows a part of the results.", "data": [{"binder": "B1", "values": [{"measurement": "glycan array binding signal (z-score)", "setting": "Neu5Ac(a2-8)Neu5Ac", "result": -0.409}, {"measurement": "glycan array binding signal (z-score)", "setting": "[1]", "result": 0.801}, {"measurement": "glycan array binding signal (z-score)", "setting": "[2]", "result": 1.2}, {"measurement": "glycan array binding signal (z-score)", "setting": "[3]", "result": -1.16}, {"measurement": "glycan array binding signal (z-score)", "setting": "[4]", "result": 0.521}, {"measurement": "glycan array binding signal (z-score)", "setting": "[5]", "result": -0.708}, {"measurement": "glycan array binding signal (z-score)", "setting": "[6]", "result": -0.566}, {"measurement": "glycan array binding signal (z-score)", "setting": "[7]", "result": 0.331}, {"measurement": "glycan array binding signal (z-score)", "setting": "[8]", "result": -0.871}, {"measurement": "glycan array binding signal (z-score)", "setting": "[9]", "result": -0.454}, {"measurement": "glycan array binding signal (z-score)", "setting": "[10]", "result": -0.556}, {"measurement": "glycan array binding signal (z-score)", "setting": "[11]", "result": -0.256}, {"measurement": "glycan array binding signal (z-score)", "setting": "[12]", "result": -0.891}, {"measurement": "glycan array binding signal (z-score)", "setting": "[13]", "result": -0.256}, {"measurement": "glycan array binding signal (z-score)", "setting": "Neu5Ac(b2-6)GalNAc", "result": -0.993}, {"measurement": "glycan array binding signal (z-score)", "setting": "[14]", "result": -0.5}, {"measurement": "glycan array binding signal (z-score)", "setting": "[15]", "result": -0.688}, {"measurement": "glycan array binding signal (z-score)", "setting": "[16]", "result": -0.256}, {"measurement": "glycan array binding signal (z-score)", "setting": "[17]", "result": -1.3}, {"measurement": "glycan array binding signal (z-score)", "setting": "[18]", "result": 0.298}, {"measurement": "glycan array binding signal (z-score)", "setting": "Neu5Gc(a2-3)Gal(b1-4)Glc", "result": -0.912}, {"measurement": "glycan array binding signal (z-score)", "setting": "[19]", "result": -0.429}, {"measurement": "glycan array binding signal (z-score)", "setting": "[20]", "result": 1.59}, {"measurement": "glycan array binding signal (z-score)", "setting": "[21]", "result": -0.373}, {"measurement": "glycan array binding signal (z-score)", "setting": "[22]", "result": 0.486}, {"measurement": "glycan array binding signal (z-score)", "setting": "Neu5Gc(a2-6)GalNAc", "result": -0.825}, {"measurement": "glycan array binding signal (z-score)", "setting": "[23]", "result": -0.815}, {"measurement": "glycan array binding signal (z-score)", "setting": "[24]", "result": -0.998}, {"measurement": "glycan array binding signal (z-score)", "setting": "[25]", "result": 0.979}, {"measurement": "glycan array binding signal (z-score)", "setting": "[26]", "result": -1.1}, {"measurement": "glycan array binding signal (z-score)", "setting": "[27]", "result": -0.515}]}]}
